Source: the supplement of paper PMC10849652
The list shows a part of the results. Residues, ends and D or L forms follow the SMILES beside them. *: point of attachment. Cbz = O=C(OCc1ccccc1)*

The chains behind the UniProt entries cited, without tags or fusion partners. Where a name states a change or a piece, a line headed by the entry shows the natural chain unless it says otherwise.
UniProt Q9HCN4, whole entry, looked up: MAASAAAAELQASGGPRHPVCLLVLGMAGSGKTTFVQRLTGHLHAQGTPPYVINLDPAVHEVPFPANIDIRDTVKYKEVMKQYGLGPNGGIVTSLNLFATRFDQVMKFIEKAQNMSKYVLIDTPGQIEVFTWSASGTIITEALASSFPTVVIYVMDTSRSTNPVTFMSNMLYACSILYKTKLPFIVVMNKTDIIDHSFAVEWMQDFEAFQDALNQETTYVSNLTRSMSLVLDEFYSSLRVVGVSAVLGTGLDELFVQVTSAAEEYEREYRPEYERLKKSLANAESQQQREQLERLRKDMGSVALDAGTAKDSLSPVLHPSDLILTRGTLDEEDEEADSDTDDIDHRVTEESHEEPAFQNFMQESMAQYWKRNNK
UniProt Q9Y5P6: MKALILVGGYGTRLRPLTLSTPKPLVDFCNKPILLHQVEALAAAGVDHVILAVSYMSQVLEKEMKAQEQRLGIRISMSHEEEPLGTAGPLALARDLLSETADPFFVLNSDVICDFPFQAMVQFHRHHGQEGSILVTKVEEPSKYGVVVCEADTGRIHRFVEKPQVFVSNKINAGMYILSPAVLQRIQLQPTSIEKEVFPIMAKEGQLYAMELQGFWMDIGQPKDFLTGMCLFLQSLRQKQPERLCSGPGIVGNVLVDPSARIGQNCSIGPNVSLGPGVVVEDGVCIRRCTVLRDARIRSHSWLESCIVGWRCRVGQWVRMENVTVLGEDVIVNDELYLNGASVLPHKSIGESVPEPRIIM
UniProt Q13098: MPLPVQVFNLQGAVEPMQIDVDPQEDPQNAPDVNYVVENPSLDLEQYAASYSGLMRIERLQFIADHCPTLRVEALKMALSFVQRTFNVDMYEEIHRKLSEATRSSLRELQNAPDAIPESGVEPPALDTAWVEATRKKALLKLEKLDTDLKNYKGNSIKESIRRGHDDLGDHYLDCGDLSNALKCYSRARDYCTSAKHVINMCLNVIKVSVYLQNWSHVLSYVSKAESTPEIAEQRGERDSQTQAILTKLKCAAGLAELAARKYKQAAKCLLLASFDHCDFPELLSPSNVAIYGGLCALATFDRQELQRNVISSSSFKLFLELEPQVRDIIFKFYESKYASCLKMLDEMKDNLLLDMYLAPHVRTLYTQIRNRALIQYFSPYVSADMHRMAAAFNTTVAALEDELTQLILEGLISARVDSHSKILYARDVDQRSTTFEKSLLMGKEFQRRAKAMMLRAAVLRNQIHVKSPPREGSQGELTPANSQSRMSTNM
UniProt Q7Z2K8: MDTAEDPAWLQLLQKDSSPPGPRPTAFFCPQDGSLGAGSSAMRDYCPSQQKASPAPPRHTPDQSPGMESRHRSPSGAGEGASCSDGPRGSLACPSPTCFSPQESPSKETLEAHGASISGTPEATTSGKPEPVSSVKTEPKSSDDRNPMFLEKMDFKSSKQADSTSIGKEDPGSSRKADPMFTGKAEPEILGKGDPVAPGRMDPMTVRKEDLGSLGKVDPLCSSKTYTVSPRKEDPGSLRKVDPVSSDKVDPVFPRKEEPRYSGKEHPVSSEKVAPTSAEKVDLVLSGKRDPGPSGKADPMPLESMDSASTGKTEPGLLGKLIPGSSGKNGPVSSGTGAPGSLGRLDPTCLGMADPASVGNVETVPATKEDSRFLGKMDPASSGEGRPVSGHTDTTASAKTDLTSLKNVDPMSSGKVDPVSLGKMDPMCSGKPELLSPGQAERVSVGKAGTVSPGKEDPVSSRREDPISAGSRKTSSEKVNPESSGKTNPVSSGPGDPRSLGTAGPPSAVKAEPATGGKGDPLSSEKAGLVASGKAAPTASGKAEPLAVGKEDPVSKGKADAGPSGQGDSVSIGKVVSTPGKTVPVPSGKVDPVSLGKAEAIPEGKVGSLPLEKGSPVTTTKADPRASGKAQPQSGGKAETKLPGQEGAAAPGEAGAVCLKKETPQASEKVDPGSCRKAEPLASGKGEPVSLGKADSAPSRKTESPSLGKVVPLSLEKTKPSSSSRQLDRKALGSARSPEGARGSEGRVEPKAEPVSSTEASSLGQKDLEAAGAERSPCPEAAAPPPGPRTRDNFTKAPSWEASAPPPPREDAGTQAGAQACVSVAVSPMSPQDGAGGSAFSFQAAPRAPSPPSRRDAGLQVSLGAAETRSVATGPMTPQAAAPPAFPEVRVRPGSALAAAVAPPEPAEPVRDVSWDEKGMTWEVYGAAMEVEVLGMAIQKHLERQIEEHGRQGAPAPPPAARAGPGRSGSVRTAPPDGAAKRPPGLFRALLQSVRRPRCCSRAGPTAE
UniProt Q9HAV7: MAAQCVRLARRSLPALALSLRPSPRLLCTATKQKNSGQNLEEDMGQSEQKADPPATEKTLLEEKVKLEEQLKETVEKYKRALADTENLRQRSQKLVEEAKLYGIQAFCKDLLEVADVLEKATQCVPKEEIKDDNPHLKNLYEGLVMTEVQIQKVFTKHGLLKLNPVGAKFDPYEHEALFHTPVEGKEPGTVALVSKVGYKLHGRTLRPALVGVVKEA
UniProt Q13439: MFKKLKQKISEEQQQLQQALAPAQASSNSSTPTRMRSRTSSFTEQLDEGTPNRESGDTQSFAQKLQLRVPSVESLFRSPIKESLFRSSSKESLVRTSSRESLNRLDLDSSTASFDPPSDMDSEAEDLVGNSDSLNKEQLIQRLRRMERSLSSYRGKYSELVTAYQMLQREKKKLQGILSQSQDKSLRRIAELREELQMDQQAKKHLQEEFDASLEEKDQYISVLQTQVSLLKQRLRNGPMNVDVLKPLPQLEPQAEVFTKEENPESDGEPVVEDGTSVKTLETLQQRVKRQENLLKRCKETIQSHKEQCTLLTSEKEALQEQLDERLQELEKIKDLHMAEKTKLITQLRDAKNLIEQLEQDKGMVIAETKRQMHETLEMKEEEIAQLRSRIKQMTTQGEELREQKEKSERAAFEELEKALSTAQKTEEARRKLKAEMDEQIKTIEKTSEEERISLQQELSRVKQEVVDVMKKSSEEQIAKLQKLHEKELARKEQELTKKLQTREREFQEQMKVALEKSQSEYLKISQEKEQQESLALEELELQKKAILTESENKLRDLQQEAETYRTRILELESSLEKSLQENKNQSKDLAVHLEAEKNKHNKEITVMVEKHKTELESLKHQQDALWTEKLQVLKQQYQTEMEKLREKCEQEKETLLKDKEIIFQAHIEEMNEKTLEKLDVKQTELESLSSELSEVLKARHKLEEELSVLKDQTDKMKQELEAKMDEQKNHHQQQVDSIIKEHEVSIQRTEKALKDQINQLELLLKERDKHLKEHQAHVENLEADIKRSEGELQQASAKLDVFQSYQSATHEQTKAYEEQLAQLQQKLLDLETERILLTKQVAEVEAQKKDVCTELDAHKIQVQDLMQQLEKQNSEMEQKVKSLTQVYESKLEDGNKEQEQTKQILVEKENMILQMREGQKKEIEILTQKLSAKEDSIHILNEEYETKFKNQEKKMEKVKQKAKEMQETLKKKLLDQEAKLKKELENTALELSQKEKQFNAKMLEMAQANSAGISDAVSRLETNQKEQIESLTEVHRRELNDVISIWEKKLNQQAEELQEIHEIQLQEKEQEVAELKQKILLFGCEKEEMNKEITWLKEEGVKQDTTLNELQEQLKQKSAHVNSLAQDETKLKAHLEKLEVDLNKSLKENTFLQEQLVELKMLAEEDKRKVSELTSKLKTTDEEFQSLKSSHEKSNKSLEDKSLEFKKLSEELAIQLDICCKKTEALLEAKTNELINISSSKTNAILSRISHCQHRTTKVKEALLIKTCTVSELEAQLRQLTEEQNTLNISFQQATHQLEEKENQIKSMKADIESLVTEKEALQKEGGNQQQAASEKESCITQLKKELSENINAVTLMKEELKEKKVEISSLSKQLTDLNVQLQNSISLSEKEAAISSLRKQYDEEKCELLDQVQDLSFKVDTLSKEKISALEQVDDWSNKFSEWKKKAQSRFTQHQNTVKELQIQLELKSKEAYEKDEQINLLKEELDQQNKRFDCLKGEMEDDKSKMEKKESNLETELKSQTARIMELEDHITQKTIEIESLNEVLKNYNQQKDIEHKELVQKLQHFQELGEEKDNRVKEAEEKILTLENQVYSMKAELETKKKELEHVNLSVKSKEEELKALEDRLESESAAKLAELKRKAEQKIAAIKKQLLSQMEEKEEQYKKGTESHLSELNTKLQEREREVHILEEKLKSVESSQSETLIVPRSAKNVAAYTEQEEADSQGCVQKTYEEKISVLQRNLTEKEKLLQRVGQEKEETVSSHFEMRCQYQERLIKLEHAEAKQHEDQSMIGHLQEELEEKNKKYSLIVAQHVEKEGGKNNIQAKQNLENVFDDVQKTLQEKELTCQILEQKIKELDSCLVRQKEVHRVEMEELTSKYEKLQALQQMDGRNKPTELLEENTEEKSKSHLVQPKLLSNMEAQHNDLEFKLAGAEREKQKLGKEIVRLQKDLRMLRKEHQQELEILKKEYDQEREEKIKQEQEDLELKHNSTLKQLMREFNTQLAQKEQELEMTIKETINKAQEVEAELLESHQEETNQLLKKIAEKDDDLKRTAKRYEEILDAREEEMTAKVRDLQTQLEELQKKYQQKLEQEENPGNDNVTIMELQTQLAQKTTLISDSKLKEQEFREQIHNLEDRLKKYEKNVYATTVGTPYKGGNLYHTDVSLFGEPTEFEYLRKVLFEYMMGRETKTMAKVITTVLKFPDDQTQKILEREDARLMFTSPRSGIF
UniProt O95249: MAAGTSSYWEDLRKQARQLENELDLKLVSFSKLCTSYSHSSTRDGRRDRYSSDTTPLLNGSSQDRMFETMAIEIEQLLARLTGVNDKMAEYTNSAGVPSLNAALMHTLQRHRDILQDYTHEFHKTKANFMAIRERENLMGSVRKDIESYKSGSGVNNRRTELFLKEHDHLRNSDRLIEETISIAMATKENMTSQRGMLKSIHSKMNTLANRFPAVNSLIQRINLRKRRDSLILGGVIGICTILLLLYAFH
UniProt P62873, whole entry, looked up: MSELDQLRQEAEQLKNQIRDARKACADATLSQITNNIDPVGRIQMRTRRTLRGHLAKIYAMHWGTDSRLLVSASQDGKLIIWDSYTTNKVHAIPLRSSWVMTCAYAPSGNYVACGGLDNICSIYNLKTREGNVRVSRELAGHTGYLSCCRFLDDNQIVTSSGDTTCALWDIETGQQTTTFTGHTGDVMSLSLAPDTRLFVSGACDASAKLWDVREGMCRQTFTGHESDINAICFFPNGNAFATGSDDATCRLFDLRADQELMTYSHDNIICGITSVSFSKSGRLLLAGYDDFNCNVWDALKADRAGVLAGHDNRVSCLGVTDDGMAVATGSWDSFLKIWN
UniProt Q9HC44: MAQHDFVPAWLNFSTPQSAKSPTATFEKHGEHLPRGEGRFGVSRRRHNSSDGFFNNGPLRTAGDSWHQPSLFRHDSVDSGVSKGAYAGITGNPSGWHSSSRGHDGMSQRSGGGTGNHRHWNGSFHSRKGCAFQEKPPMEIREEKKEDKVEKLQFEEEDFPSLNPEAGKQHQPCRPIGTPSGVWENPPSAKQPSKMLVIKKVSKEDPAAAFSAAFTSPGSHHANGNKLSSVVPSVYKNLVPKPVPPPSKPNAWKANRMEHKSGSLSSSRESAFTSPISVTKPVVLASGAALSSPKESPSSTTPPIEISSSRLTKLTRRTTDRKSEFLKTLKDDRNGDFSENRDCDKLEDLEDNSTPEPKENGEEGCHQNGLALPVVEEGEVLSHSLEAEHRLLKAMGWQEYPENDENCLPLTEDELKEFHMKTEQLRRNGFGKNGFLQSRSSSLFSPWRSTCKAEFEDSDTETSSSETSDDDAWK
UniProt P62993, whole entry, looked up: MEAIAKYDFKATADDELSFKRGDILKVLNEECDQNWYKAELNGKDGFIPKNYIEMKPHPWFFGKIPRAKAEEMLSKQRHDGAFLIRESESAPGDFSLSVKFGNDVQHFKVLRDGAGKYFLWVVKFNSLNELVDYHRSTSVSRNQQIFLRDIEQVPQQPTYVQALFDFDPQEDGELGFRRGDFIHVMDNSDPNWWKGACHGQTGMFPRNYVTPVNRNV
UniProt Q92990: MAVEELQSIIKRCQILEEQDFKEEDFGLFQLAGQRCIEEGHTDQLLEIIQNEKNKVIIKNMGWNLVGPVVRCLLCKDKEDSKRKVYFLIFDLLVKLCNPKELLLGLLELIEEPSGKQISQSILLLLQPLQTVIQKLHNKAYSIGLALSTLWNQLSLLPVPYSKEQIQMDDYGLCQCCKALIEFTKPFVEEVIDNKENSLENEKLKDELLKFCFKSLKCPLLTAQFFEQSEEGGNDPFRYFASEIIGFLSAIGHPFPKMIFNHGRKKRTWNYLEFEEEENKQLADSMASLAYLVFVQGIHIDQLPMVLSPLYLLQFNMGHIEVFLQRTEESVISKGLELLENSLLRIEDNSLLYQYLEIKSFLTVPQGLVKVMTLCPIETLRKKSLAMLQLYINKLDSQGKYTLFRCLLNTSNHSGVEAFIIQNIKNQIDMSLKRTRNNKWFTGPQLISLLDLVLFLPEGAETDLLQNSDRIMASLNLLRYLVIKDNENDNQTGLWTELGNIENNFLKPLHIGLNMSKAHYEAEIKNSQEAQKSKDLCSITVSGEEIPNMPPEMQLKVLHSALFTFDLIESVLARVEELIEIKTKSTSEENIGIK

Key:
Assay in all cases: log2 fold change, soluble protein after heating vs DMSO (PISA); higher = thermal stabilisation; K562 cells, 10 uM, 30 min; active = over 0.2 and 3.5 SD of the protein, either way, in both replicates (recomputed)
IRAK-1-4 Inhibitor I = compound: C1COCCN1CCN2C3=CC=CC=C3N=C2NC(=O)C4=CC(=CC=C4)[N+](=O)[O-] [IRAK-1-4 Inhibitor I]
Method in brief: (§1)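 Soluble protein was quantified by TMTpro 16plex LC-MS/MS after channel sums were equalised. It was obtained as the supernatant after 21,000xg for 90 min from pooled aliquots of K562 cells (2×10^6 cells/mL, 10 μM compound, 30 min) heated for 3 min across 48°C-58°C and extracted in PBS with 0.5% NP-40 at 4°C. Thermal stability values are relative to control samples and come from duplicates. They are given as log2 fold changes.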

ibrutinib = compound: C=CC(=O)N1CCC[C@@H](n2nc(-c3ccc(Oc4ccccc4)cc3)c3c(N)ncnc32)C1 [ibrutinib]
Method in brief: as §1

[1] = compound: CC(=O)c1cnc2ccc(-c3cc(Cl)c(O)c(Cl)c3)nc2c1N[C@H]1CC[C@H](CN(C)C)CC1
Method in brief: as §1

ralimetinib = compound: CC(C)(C)Cn1c(N)nc2ccc(-c3[nH]c(C(C)(C)C)nc3-c3ccc(F)cc3)nc21 [ralimetinib]
Method in brief: as §1

[2] = compound: CC(C)(O)CC(=O)NCCn1ccc2ncnc(Nc3ccc(Oc4cccc(C(F)(F)F)c4)c(Cl)c3)c21
Method in brief: as §1

[3] = compound: CC(C)C1=C2N=C(C=C(N2N=C1)NCC3=CC=CC=C3)NCCCCCCN
Method in brief: as §1

[4] = compound: CC(C)C[C@@H](C=O)NC(=O)[C@H](CC(C)C)NC(=O)[C@H](CC(C)C)NC(=O)OCc1ccccc1
Method in brief: as §1

pinometostat = compound: CC(C)N(C[C@H]1O[C@@H](n2cnc3c(N)ncnc32)[C@H](O)[C@@H]1O)[C@H]1C[C@@H](CCc2nc3cc(C(C)(C)C)ccc3[nH]2)C1 [pinometostat]
Method in brief: as §1

[5] = compound: CC1=C(C(CC(=O)N1)C2=CC=C(C=C2)C(F)(F)F)C(=O)NC3=C(C=C4C(=C3)C=NN4)F
Method in brief: as §1

[6] = compound: CC1=C(C2=C(C=C1)C(=O)C3=CC=CC=C3N2CCCN)C
Method in brief: as §1

[7] = compound: CC1=C(C=C(C=C1)NC(=O)C2=CC(=CC=C2)C(C)(C)C#N)NC3=CC4=C(C=C3)N=CN(C4=O)C
Method in brief: as §1

[8] = compound: CC1=C(C=C(C=C1)NC(=O)C2=CC(=CC=C2)N(C)C)NC(=O)C3=CC=C(C=C3)O
Method in brief: as §1

[9] = compound: CC1=CC=C(C=C1)SC2=C3C=C(SC3=CN=C2)C(=O)N
Method in brief: as §1

[10] = compound: CC1=NC(=CC=C1)C2=C(N=C(N2)C(C)(C)C)C3=CC4=NC=CN=C4C=C3
Method in brief: as §1

Nexturastat A = compound: CCCCN(Cc1ccc(C(=O)NO)cc1)C(=O)Nc1ccccc1 [Nexturastat A]
Method in brief: as §1

vemurafenib = compound: CCCS(=O)(=O)Nc1ccc(F)c(C(=O)c2c[nH]c3ncc(-c4ccc(Cl)cc4)cc23)c1F [vemurafenib]
Method in brief: as §1

[11] = compound: CCCS(=O)(=O)Nc1ccc(F)c(C(=O)c2c[nH]c3ncc(Cl)cc23)c1F
Method in brief: as §1

[12] = compound: CCCc1cc(C)[nH]c(=O)c1CNC(=O)c1cc(-c2ccnc(N3CCN(C)CC3)c2)cc2c1cnn2C(C)C
Method in brief: as §1

givinostat = compound: CCN(CC)Cc1ccc2cc(COC(=O)Nc3ccc(C(=O)NO)cc3)ccc2c1 [givinostat]
Method in brief: as §1

barasertib = compound: CCN(CCCOc1ccc2c(Nc3cc(CC(=O)Nc4cccc(F)c4)[nH]n3)ncnc2c1)CCOP(=O)(O)O [barasertib]
Method in brief: as §1

Measured: log2 fold change

GPN1 isoform 5 (UniProt Q9HCN4)
inactive: IRAK-1-4 Inhibitor I 0.019 | ibrutinib 0.04 | [1] -0.024 | ralimetinib 0.026 | [2] 0.043 | [3] 0.027 | [4] 0.023 | pinometostat -0.031 | [5] 0.036 | [6] 0.076 | [7] -0.025 | [8] -0.015 | [9] 0.028 | [10] -0.006 | Nexturastat A -0.013 | vemurafenib -0.044 | [11] -0.016 | [12] -0.043 | givinostat 0.004 | barasertib 0.008

GRWD1 (UniProt Q9BQ67)
inactive: IRAK-1-4 Inhibitor I -0.183 | ibrutinib 0.084 | [1] 0.154 | ralimetinib 0.207 | [2] 0 | [3] -0.081 | [4] 0.137 | pinometostat 0.222 | [5] 0.066 | [6] -0.289 | [7] -0.078 | [8] -0.001 | [9] -0.067 | [10] -0.114 | Nexturastat A 0.2 | vemurafenib -0.133 | [11] -0.091 | [12] 0.154 | givinostat 0.009 | barasertib -0.051

GMPPB isoform 2 (UniProt Q9Y5P6)
inactive: IRAK-1-4 Inhibitor I -0.038 | ibrutinib 0.003 | [1] -0.046 | ralimetinib -0.014 | [2] -0.107 | [3] 0.036 | [4] 0.011 | pinometostat -0.105 | [5] -0.041 | [6] 0.105 | [7] -0.021 | [8] -0.005 | [9] 0.033 | [10] 0.057 | Nexturastat A -0.108 | vemurafenib 0.034 | [11] 0.052 | [12] -0.056 | givinostat 0.014 | barasertib 0.018

GIPC1 (UniProt O14908)
inactive: IRAK-1-4 Inhibitor I 0 | ibrutinib 0.035 | [1] 0.033 | ralimetinib 0.027 | [2] -0.104 | [3] -0.049 | [4] 0.006 | pinometostat 0.026 | [5] -0.074 | [6] -0.02 | [7] 0.025 | [8] -0.052 | [9] 0.013 | [10] 0.003 | Nexturastat A 0.044 | vemurafenib 0.056 | [11] 0.066 | [12] -0.04 | givinostat 0.089 | barasertib 0.028

GPS1 isoform 7 (UniProt Q13098)
inactive: IRAK-1-4 Inhibitor I 0.024 | ibrutinib -0.004 | [1] -0.036 | ralimetinib 0.002 | [2] 0.02 | [3] 0.005 | [4] -0.059 | pinometostat -0.057 | [5] 0.006 | [6] -0.082 | [7] 0.013 | [8] 0.024 | [9] 0.014 | [10] 0.054 | Nexturastat A -0.088 | vemurafenib 0.022 | [11] 0.044 | [12] -0.016 | givinostat -0.011 | barasertib 0.018

Taken from the results shown (4 entries):
GPN1 isoform 5 (UniProt Q9HCN4)
inactive: IRAK-1-4 Inhibitor I 0.019 | ibrutinib 0.04 | [1] -0.024 | ralimetinib 0.026 | [2] 0.043 | [3] 0.027 | [4] 0.023 | pinometostat -0.031 | [5] 0.036 | [6] 0.076 | [7] -0.025 | [8] -0.015 | [9] 0.028 | [10] -0.006 | Nexturastat A -0.013 | vemurafenib -0.044 | [11] -0.016 | [12] -0.043 | givinostat 0.004 | barasertib 0.008

GRWD1 (UniProt Q9BQ67)
inactive: IRAK-1-4 Inhibitor I -0.183 | ibrutinib 0.084 | [1] 0.154 | ralimetinib 0.207 | [2] 0 | [3] -0.081 | [4] 0.137 | pinometostat 0.222 | [5] 0.066 | [6] -0.289 | [7] -0.078 | [8] -0.001 | [9] -0.067 | [10] -0.114 | Nexturastat A 0.2 | vemurafenib -0.133 | [11] -0.091 | [12] 0.154 | givinostat 0.009 | barasertib -0.051

GMPPB isoform 2 (UniProt Q9Y5P6)
inactive: IRAK-1-4 Inhibitor I -0.038 | ibrutinib 0.003 | [1] -0.046 | ralimetinib -0.014 | [2] -0.107 | [3] 0.036 | [4] 0.011 | pinometostat -0.105 | [5] -0.041 | [6] 0.105 | [7] -0.021 | [8] -0.005 | [9] 0.033 | [10] 0.057 | Nexturastat A -0.108 | vemurafenib 0.034 | [11] 0.052 | [12] -0.056 | givinostat 0.014 | barasertib 0.018

GIPC1 (UniProt O14908)
inactive: IRAK-1-4 Inhibitor I 0 | ibrutinib 0.035 | [1] 0.033 | ralimetinib 0.027 | [2] -0.104 | [3] -0.049 | [4] 0.006 | pinometostat 0.026 | [5] -0.074 | [6] -0.02 | [7] 0.025 | [8] -0.052 | [9] 0.013 | [10] 0.003 | Nexturastat A 0.044 | vemurafenib 0.056 | [11] 0.066 | [12] -0.04 | givinostat 0.089 | barasertib 0.028

(cont.)

GPRIN1 (UniProt Q7Z2K8)
inactive: IRAK-1-4 Inhibitor I 0.03 | ibrutinib -0.007 | [1] -0.017 | ralimetinib -0.015 | [2] -0.014 | [3] 0.136 | [4] -0.017 | pinometostat -0.007 | [5] 0.013 | [6] 0.02 | [7] 0.028 | [8] -0.029 | [9] -0.048 | [10] 0.005 | Nexturastat A -0.031 | vemurafenib -0.016 | [11] -0.011 | [12] -0.036 | givinostat -0.026 | barasertib -0.015

GRPEL1 (UniProt Q9HAV7)
inactive: IRAK-1-4 Inhibitor I 0.02 | ibrutinib -0.026 | [1] 0.005 | ralimetinib -0.055 | [2] 0 | [3] -0.006 | [4] -0.009 | pinometostat -0.062 | [5] -0.017 | [6] 0.027 | [7] 0.059 | [8] -0.028 | [9] 0.002 | [10] 0.031 | Nexturastat A -0.091 | vemurafenib 0.032 | [11] 0.003 | [12] 0.081 | givinostat -0.016 | barasertib 0.019

GOLGA4 isoform 5 (UniProt Q13439)
inactive: IRAK-1-4 Inhibitor I -0.003 | ibrutinib -0.08 | [1] -0.124 | ralimetinib -0.067 | [2] 0.013 | [3] -0.073 | [4] 0.13 | pinometostat 0.018 | [5] 0.169 | [6] -0.025 | [7] -0.07 | [8] 0.024 | [9] -0.085 | [10] 0.006 | Nexturastat A 0.122 | vemurafenib -0.029 | [11] 0 | [12] 0.048 | givinostat 0.13 | barasertib 0.103

GOSR1 (UniProt O95249)
inactive: IRAK-1-4 Inhibitor I -0.001 | ibrutinib 0 | [1] -0.024 | ralimetinib -0.03 | [2] -0.058 | [3] -0.109 | [4] 0.009 | pinometostat -0.013 | [5] 0.02 | [6] -0.022 | [7] 0.007 | [8] 0.016 | [9] 0.017 | [10] 0.077 | Nexturastat A -0.02 | vemurafenib 0.036 | [11] 0.024 | [12] -0.02 | givinostat 0.021 | barasertib 0.003

GNPTAB (UniProt Q3T906)
inactive: IRAK-1-4 Inhibitor I -0.092 | ibrutinib 0.115 | [1] -0.051 | ralimetinib -0.066 | [2] -0.061 | [3] -0.043 | [4] 0.015 | pinometostat 0.004 | [5] 0.075 | [6] 0.019 | [7] 0.157 | [8] 0.047 | [9] 0.001 | [10] 0.005 | Nexturastat A 0.072 | vemurafenib -0.126 | [11] -0.005 | [12] 0.102 | givinostat 0.01 | barasertib 0.046

GNA11 (UniProt P29992)
inactive: IRAK-1-4 Inhibitor I -0.073 | ibrutinib -0.001 | [1] -0.074 | ralimetinib -0.039 | [2] 0.06 | [3] 0.111 | [4] -0.012 | pinometostat -0.007 | [5] -0.087 | [6] 0.106 | [7] 0.093 | [8] -0.045 | [9] 0.002 | [10] -0.011 | Nexturastat A -0.122 | vemurafenib 0.05 | [11] 0.01 | [12] 0.024 | givinostat 0.007 | barasertib 0.002

GNB1 (UniProt P62873)
inactive: IRAK-1-4 Inhibitor I 0.018 | ibrutinib 0.045 | [1] 0.024 | ralimetinib -0.017 | [2] 0.013 | [3] 0.171 | [4] -0.009 | pinometostat -0.028 | [5] -0.023 | [6] 0.042 | [7] 0.143 | [8] -0.074 | [9] -0.047 | [10] -0.012 | Nexturastat A -0.031 | vemurafenib -0.022 | [11] 0.008 | [12] -0.008 | givinostat -0.031 | barasertib -0.061

GMFB (UniProt P60983)
inactive: IRAK-1-4 Inhibitor I 0.052 | ibrutinib 0.015 | [1] -0.024 | ralimetinib -0.01 | [2] -0.025 | [3] -0.006 | [4] -0.05 | pinometostat -0.081 | [5] 0.002 | [6] 0.047 | [7] 0.005 | [8] -0.022 | [9] -0.018 | [10] 0.06 | Nexturastat A -0.075 | vemurafenib 0.002 | [11] -0.002 | [12] -0.026 | givinostat -0.017 | barasertib -0.012

GPBP1L1 (UniProt Q9HC44)
inactive: IRAK-1-4 Inhibitor I -0.002 | ibrutinib 0.031 | [1] 0 | ralimetinib -0.101 | [2] -0.019 | [3] -0.013 | [4] 0.032 | pinometostat 0.104 | [5] 0.053 | [6] -0.098 | [7] -0.001 | [8] 0.01 | [9] -0.004 | [10] 0.034 | Nexturastat A 0.008 | vemurafenib -0.062 | [11] -0.052 | [12] -0.172 | givinostat 0.021 | barasertib 0

GRB2 (UniProt P62993)
inactive: IRAK-1-4 Inhibitor I 0.016 | ibrutinib -0.026 | [1] 0.024 | ralimetinib -0.038 | [2] -0.012 | [3] -0.028 | [4] -0.002 | pinometostat -0.027 | [5] -0.022 | [6] -0.045 | [7] 0.075 | [8] -0.008 | [9] -0.021 | [10] 0.014 | Nexturastat A -0.005 | vemurafenib 0.021 | [11] 0.002 | [12] -0.014 | givinostat -0.037 | barasertib 0.008

GLMN (UniProt Q92990)
inactive: IRAK-1-4 Inhibitor I 0.023 | ibrutinib -0.006 | [1] -0.01 | ralimetinib 0.016 | [2] -0.068 | [3] 0.01 | [4] -0.065 | pinometostat 0.022 | [5] -0.032 | [6] -0.023 | [7] -0.01 | [8] 0.013 | [9] 0.017 | [10] -0.009 | Nexturastat A -0.033 | vemurafenib 0.05 | [11] 0.074 | [12] -0.017 | givinostat 0.03 | barasertib 0.005
